Data published in PMC5599688.
Where a chain is given by its changes, count along the chain named. No constants are given. Whether binding was seen depends on the method and setting. In cells and extracts the contact can be indirect. Some entries that bind do so weakly or less than the wild type.

Amino acid sequences for entries named in this document (tags omitted). Residues count along the entry.
UniProt P35565, residues 21-591: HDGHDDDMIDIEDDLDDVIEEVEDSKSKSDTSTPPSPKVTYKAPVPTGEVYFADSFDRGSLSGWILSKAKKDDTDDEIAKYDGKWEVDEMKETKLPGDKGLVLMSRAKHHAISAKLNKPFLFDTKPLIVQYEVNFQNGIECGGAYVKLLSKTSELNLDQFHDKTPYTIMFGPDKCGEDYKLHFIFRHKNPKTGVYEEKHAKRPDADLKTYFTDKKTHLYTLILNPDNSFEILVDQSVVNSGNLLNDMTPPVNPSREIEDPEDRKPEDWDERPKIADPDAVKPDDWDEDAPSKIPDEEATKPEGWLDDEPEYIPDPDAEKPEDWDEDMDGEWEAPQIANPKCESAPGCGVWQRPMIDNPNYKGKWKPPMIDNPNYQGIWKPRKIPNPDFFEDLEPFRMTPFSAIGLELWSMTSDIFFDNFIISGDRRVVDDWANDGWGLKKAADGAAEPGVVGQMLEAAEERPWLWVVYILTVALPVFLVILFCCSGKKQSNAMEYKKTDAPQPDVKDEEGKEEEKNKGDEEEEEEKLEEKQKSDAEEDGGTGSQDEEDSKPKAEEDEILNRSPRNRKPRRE
UniProt O95180: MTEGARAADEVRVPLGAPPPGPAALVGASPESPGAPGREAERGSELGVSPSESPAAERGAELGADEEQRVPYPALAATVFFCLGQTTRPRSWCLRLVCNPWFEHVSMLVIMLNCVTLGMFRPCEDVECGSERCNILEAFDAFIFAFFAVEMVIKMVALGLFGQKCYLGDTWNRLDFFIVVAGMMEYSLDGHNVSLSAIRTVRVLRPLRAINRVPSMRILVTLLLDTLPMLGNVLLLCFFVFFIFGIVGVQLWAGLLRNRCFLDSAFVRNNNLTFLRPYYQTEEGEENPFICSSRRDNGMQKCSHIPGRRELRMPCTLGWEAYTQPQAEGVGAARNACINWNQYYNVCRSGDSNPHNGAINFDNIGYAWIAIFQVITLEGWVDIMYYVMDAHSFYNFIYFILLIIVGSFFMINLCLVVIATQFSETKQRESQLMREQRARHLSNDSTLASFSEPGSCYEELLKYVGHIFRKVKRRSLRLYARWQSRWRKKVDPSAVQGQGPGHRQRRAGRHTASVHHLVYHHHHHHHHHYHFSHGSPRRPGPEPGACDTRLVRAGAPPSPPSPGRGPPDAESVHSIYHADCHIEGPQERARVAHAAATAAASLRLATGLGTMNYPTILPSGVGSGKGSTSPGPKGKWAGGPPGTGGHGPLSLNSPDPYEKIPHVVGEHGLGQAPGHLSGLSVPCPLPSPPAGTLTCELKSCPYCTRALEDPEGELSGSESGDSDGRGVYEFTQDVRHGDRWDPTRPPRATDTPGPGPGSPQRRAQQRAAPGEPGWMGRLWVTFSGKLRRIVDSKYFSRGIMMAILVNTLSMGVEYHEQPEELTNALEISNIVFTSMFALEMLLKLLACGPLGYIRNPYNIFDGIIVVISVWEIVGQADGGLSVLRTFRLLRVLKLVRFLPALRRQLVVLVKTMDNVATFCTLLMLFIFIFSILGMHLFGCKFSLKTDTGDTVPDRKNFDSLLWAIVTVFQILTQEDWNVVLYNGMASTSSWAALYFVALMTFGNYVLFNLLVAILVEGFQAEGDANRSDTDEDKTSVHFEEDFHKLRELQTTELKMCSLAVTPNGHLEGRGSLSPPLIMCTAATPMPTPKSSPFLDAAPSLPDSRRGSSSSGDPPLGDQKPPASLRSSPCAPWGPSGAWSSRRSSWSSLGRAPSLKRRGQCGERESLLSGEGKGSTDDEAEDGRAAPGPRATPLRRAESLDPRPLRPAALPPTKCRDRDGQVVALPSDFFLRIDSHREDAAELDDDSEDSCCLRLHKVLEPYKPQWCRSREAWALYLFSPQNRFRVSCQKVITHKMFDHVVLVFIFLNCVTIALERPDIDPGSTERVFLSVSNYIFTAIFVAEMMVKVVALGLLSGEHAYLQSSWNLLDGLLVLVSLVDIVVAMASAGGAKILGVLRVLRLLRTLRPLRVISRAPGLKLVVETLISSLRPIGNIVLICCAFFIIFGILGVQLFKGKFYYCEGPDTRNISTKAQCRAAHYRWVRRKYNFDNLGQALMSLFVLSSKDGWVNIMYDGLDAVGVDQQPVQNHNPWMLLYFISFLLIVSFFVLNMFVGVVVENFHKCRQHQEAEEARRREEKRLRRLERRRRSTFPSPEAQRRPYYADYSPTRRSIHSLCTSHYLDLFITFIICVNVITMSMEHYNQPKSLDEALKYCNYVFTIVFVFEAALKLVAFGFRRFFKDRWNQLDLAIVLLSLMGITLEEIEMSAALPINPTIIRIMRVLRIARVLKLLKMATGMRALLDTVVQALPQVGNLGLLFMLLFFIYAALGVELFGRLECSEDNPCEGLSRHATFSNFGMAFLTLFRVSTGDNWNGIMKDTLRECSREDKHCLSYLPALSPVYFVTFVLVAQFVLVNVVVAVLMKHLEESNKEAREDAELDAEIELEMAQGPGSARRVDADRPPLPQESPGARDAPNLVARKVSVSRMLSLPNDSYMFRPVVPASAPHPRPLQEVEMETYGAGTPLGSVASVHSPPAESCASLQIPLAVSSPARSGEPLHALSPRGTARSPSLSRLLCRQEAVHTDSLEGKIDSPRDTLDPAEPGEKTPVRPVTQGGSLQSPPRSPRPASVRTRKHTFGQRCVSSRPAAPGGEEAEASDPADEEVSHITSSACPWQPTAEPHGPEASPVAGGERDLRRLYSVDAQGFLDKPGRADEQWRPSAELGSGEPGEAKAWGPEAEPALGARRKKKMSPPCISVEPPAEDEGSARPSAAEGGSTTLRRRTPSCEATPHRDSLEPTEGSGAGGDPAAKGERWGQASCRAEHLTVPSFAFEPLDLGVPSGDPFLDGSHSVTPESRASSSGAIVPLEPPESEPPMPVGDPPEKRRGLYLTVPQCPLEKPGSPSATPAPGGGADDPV
UniProt O88427: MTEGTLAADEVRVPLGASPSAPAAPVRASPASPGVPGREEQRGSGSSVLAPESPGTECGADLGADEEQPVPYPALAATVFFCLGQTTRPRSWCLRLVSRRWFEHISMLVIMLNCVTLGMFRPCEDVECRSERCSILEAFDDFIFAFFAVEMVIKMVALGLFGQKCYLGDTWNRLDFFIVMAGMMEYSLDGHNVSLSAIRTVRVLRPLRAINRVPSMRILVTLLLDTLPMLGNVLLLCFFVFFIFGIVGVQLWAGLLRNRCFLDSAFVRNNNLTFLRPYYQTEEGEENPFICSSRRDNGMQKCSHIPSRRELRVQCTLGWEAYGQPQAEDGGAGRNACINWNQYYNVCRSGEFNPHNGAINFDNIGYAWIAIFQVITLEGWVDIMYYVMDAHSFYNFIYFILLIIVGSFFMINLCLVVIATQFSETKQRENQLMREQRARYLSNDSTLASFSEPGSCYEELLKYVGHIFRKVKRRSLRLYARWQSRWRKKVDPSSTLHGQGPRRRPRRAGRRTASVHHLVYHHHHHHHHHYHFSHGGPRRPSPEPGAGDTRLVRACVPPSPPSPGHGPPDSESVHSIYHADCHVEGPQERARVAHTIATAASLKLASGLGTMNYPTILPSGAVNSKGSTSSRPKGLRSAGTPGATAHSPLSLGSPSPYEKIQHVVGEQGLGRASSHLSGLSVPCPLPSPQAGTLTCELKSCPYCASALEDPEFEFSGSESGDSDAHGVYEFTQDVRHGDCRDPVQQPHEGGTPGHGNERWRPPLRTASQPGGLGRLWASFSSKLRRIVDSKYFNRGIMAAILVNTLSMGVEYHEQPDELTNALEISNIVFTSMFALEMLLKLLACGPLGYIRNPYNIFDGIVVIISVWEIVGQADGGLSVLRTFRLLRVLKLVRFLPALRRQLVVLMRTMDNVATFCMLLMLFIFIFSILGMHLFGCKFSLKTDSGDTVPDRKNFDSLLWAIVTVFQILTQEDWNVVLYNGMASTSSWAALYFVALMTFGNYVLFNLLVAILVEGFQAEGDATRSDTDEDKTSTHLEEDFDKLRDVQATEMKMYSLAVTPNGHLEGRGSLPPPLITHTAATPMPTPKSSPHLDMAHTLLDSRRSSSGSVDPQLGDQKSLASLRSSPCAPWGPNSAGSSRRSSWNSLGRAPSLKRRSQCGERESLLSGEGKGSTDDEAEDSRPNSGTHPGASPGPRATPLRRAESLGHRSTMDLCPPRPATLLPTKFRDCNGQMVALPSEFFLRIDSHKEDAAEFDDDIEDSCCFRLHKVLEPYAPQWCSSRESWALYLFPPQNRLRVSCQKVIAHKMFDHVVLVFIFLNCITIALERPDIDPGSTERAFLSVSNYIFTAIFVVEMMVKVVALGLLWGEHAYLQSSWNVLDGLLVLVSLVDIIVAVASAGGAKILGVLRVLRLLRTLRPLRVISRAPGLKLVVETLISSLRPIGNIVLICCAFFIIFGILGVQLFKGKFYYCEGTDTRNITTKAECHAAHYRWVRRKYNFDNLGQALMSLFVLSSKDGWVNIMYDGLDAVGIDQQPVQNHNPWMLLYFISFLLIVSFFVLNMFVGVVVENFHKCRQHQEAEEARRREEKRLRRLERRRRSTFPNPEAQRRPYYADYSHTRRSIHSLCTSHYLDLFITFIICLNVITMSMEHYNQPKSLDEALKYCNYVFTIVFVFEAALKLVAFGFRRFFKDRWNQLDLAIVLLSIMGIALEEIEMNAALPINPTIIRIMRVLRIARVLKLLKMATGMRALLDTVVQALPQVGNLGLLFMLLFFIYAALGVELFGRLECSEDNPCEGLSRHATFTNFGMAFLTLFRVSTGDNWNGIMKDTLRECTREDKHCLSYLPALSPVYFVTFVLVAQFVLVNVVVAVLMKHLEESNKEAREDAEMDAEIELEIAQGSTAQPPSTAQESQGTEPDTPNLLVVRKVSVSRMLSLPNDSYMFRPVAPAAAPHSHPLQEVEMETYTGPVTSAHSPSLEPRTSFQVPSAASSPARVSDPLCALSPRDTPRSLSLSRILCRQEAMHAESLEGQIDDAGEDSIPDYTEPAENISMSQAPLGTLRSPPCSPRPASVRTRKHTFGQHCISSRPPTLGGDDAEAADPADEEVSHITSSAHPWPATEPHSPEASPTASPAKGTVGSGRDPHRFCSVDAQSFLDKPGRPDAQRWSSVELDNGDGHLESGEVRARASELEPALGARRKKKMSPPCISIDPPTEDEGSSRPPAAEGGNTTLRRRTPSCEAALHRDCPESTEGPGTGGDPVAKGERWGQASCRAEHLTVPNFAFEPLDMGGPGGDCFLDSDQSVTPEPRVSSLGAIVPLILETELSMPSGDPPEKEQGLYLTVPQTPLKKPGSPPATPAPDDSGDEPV
UniProt P18418, residues 18-416: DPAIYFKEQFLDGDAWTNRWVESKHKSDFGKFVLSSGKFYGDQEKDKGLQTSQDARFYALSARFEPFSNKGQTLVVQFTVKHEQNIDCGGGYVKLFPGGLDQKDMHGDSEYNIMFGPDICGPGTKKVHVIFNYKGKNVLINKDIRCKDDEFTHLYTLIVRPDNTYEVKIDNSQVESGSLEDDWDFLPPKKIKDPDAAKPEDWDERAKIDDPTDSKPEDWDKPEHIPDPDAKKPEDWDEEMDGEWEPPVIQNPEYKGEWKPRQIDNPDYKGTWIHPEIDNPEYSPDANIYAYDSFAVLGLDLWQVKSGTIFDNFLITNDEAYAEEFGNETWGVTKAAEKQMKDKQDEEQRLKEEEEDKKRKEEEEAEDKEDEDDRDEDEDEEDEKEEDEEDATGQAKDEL

What was measured:
[1] = target: T1, calnexin (mouse brain) (mouse (endogenous in brain)) (UniProt P35564); assay: co-IP; WT versus Cav3.2 KO mouse brain homogenates; precipitated with an anti-calnexin antibody, blotted for Cav3.2
T1 sequence: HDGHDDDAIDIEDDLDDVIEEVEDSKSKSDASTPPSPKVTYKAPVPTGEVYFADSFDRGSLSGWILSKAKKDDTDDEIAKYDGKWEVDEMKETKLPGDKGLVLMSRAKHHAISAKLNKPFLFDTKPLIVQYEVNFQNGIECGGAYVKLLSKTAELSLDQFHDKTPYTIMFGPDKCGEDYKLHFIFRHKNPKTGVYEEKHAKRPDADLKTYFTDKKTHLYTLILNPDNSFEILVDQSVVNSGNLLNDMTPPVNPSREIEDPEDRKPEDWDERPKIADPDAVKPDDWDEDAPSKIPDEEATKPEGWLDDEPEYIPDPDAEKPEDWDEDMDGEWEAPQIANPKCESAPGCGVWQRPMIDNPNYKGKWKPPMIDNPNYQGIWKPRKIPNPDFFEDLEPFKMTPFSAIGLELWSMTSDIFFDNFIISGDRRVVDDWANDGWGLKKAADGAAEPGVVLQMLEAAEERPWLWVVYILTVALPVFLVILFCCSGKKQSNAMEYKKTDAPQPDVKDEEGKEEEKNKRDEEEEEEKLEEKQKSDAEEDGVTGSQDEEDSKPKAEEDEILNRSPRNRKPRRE

[2] = target: T2, calnexin (rat brain) (rat (endogenous in brain)) (UniProt P35565); assay: co-IP; 10% rat brain homogenate (also NEC versus GAERS brain) in 50 mM TrisHCl pH 8.0, 300 mM NaCl, 0.5% Triton X100, 0.5% DOC; rabbit polyclonal anti-CNX overnight at 4 °C, Sepharose G beads; blotted for Cav3.2; signal normalised to precipitated calnexin
T2 sequence: T1 sequence with A8M, A31T, A153S, S156N, K396R, L452G, R518G, V540G

[3] = target: Cav3.2 T-type calcium channel (rat brain; non-epileptic control strain) (rat (endogenous in brain)) (UniProt Q9EQ60); assay: co-IP; brain homogenate (Fig. S1); native calreticulin and BiP detected by blot; catching antibody not told for this experiment
[4] = target: HA-tagged human Cav3.2 channel (human) (UniProt O95180); assay: co-IP; tsA-201 cells 72 h after transfection, NP40 lysis buffer (50 mM Tris, 150 mM NaCl, 1% NP40, pH 8.0); precipitated with anti-HA (hCav3.2-HA), blotted with anti-CNX or anti-mCherry

Cav3.2 T-type calcium channel (mouse brain) (from UniProt O88427 1-2365)
binding [1]: binds

Cav3.2 T-type calcium channel (rat brain; non-epileptic control strain) (from UniProt Q9EQ60 1-2359)
binding [2]: binds

calreticulin (brain homogenate) (from UniProt P18418 18-416)
binding [3]: no binding

B1: calnexin in tsA-201 cells (protein, UniProt P27824 21-592)
chain: HDGHDDDVIDIEDDLDDVIEEVEDSKPDTTAPPSSPKVTYKAPVPTGEVYFADSFDRGTLSGWILSKAKKDDTDDEIAKYDGKWEVEEMKESKLPGDKGLVLMSRAKHHAISAKLNKPFLFDTKPLIVQYEVNFQNGIECGGAYVKLLSKTPELNLDQFHDKTPYTIMFGPDKCGEDYKLHFIFRHKNPKTGIYEEKHAKRPDADLKTYFTDKKTHLYTLILNPDNSFEILVDQSVVNSGNLLNDMTPPVNPSREIEDPEDRKPEDWDERPKIPDPEAVKPDDWDEDAPAKIPDEEATKPEGWLDDEPEYVPDPDAEKPEDWDEDMDGEWEAPQIANPRCESAPGCGVWQRPVIDNPNYKGKWKPPMIDNPSYQGIWKPRKIPNPDFFEDLEPFRMTPFSAIGLELWSMTSDIFFDNFIICADRRIVDDWANDGWGLKKAADGAAEPGVVGQMIEAAEERPWLWVVYILTVALPVFLVILFCCSGKKQTSGMEYKKTDAPQPDVKEEEEEKEEEKDKGDEEEEGEEKLEEKQKSDAEEDGGTVSQEEEDRKPKAEEDEILNRSPRNRKPRRE
binding [4]: binds
